In patent publication US20180020629A1:
Results are given in words; binding and its absence hold for the method and conditions named. A result given as binding can be weak or reduced; the word gives no strength. Tags and fused reporters may be left off the sequences shown.

Assays:
cYFP-OsTON1b (rice) [1] = test: BiFC, nYFP-GW7 co-transformed with cYFP-OsTON1b into Arabidopsis protoplasts
cYFP-OsTON2 (rice) [2] = test: BiFC, nYFP-GW7 co-transformed with cYFP-OsTON2 into Arabidopsis protoplasts
cYFP-OsTON1b (rice) [3] = test: BiFC in Arabidopsis protoplasts (FIG. 2j)
cYFP-OsTON2 (rice) [4] = test: BiFC in Arabidopsis protoplasts (FIG. 2j)

binding (cYFP-OsTON1b (rice) [1]): binds | binding (cYFP-OsTON2 (rice) [2]): binds | binding (cYFP-OsTON1b (rice) [3]): binds | binding (cYFP-OsTON2 (rice) [4]): binds
B1: nYFP-tagged GW7 (protein, not shown: small tags and cut ends)
chain: MPPARVLGGGGGGGGLGDEAPELERQMGCMAGIFQIFDRRQRLLTARRRRPPPKMLPPGPGHTLPRSSSNVAAQSSSTSKIVLEKTFSKSMTENSSLSIESSRASCSSSSCSSFSSLDGNKSIQQELPYINEQLFVQRPLKSSPSLKDPVMDTRSGQSNIGFRDIVKDSINRDTGGLTVKTSVKDARRNGQYKDSPRPLLLSKSMDGTYVIGIDRSTKVPANAVESSRRFPEQSRFSCDDRRLLRPVEAQENKKPSTRLKELPRLSLDSRKETLSSSSRQKTFSYRRTDDSLMDALRPQDSPGHRRASSVIAKLMGLEEAPNATGVLTVDSYEPERSPRPAEDTQKEHPVPSPRRFCQDPRESLPKDESPAMKTKPSPRILTESAPWRQQEKIATSSKASQCRDAEVRPRTASLYAYIERRGGGLEFLECNKDFRALRILEALHAKDAKRQNDGNGALTVAAQQAGDALNTSSRHFQPPIVVMKPARSTEKQPGVSLASVDPLAGFRNLRKLQARDAPCIGEHETSTNEKVHSRISRAQSKSDEPASRASSPRPTGSSSPRTVQRKAESERRSRPPVSPKSPSKKSSEAASPGGRTRTKPSQGKNHRDNEVSKSPRSRISMVKEIDISIMDFQKPLASTPSHKGTPSVLASDQKINSLENAPSPISVLDTSYYHTRLSYSFKDGETHSSEECWNPNSLPDTPQSKTSSEVSQIKPENFEALIQKLEQLQSMNDEVANKKDHQYIYEILLASGLLHKELSFVAMPGQAWPSSCLINPELFLILEQTKPDFASADQTVTKSSKANTEKLHRRIVFDLVNEITAQKMNIHCSASQSAKSLQLRKYNGWRLFKDLCTEVDRLQSESSAIKCSEEDGDERMLLVEDPLNGIEDWSFDSESPSTVLEIERLIYKDLIDEVIWDEATGKMQGGQWNLKRQLSFSSTS
